# Laboratory results taken from patent publication US20090026122A1, “BIOCOMPATIBLE SOLID-PHASE MICROEXTRACTION COATINGS AND METHODS FOR THEIR PREPARATION” (Janusz, priority 2002, published 2009).
# Test: Biocompatibility of coatings by XPS, atomic composition before and after exposure to human plasma
# Details: XPS atomic composition of the reference protein itself
substance,measurement,value
Fibrinogen,C % (RSD < 5%),62.8%
same,N % (RSD < 5%),18.0%
same,O % (RSD < 10%),18.8%
same,S % (RSD < 15%),0.5%
